Source: the supplement of paper PMC3334620
The full ranking holds about 33,000 sequences; the median of “E-score (-0.5 to 0.5)” is about -0.0034, and the highest 2% start at about 0.25. This is one part of the list.

The sequences below were run against T1, Yap3 (UniProt P38749) (assay: PBM E-score (8-mer binding enrichment) (E-score (-0.5 to 0.5)); higher = stronger / more preferred TF binding). Conditions: protein concentration: 100 nM; construct: GST-full length.
T1 sequence: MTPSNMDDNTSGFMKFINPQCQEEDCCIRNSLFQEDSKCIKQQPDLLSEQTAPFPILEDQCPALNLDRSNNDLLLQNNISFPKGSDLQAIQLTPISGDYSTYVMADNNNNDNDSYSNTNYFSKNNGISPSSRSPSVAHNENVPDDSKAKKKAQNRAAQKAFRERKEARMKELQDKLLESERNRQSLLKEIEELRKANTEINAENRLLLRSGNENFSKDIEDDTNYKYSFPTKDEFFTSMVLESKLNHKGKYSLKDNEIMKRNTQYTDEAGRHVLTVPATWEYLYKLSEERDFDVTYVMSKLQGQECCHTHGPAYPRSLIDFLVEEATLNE
Experimental: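 Universal 'all 10-mer' protein binding microarrays (Agilent AMADID 015681) probed with GST-tagged S. cerevisiae TFs (full-length or DBD) made by in vitro transcription/translation (PURExpress), about 100-200 nM. Bound TF was detected with fluorescent anti-GST. Each ungapped 8-mer (which stands for itself and its reverse complement) is scored by the PBM enrichment score (E-score), a modified Wilcoxon-Mann-Whitney statistic from -0.5 to +0.5, computed with the Universal PBM Analysis Suite. Scale: above 0.35 generally sequence-specific binding.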

Sequence	PBM E-score
AAAATCTC	0.0391
CTTCGAGC	-0.126
ATTCGCCA	0.062
CTGACCAC	-0.0928
GCCAAGAC	-0.195
GCTAACCA	0.0336
AGCCCTAG	-0.106
TCACCTCA	0.0017
TATTGTAA	0.0692
CGGCTCAA	0.00645
AGGCCTCC	-0.0772
GGATTCAC	0.0513
ATTGGCTG	-0.112
GAGCTTAC	-0.0111
AAGTCGCT	-0.146
GGAGGCCC	-0.349
CGCCGGGC	-0.143
CATTAAAA	0.281
ATGCTAAT	0.0822
CGTGATGA	0.0553
ACCCTCTG	-0.16
AAGGCCTA	-0.136
CTTTGCGA	-0.0112
ACTTGACG	-0.0458
GCATGTTA	0.0238

Sequence	PBM E-score
GAAAGGTC	-0.0358
CGTGTTAG	0.13
ACTCATAT	0.0829
AAAGTGGA	0.111
AGGACGAG	-0.139
CTAGTTTA	0.106
CGCGCTTA	0.265
CATTTACA	0.0781
GGTTGATA	-0.102
GAGAGGCC	-0.151
AATTGTGT	0.12
GTACGTGA	0.00327
AGGAAGTG	0.143
CCGACACC	-0.246
GGCTGAAC	-0.0311
GCGTCTTA	-0.103
ATGAAATG	0.0575
GCGCAACA	-0.0666
CCGGTAAC	-0.00983
ATACGGTG	0.0843
AACTACCT	0.147
ACGACGTA	0.0327
CTAAAGCC	-0.0724
ATAAGTTG	0.0657
ACGATGCC	-0.351

Reformatted as labelled records: part of the list above.
CGCGCTTA
  PBM E-score: 0.265
CATTTACA
  PBM E-score: 0.0781
GGTTGATA
  PBM E-score: -0.102
GAGAGGCC
  PBM E-score: -0.151

An excerpt of these results, as a markdown table.

| Sequence | PBM E-score |
| --- | --- |
| GAAAGGTC | -0.0358 |
| CGTGTTAG | 0.13 |
| ACTCATAT | 0.0829 |

(list continues)

Sequence	PBM E-score
ATCAACAA	0.228
CAAGTTAA	0.127
ACTATACT	0.194
TTCCCCAA	-0.00879
AAACGACT	0.0293
CTATCATA	0.12
CACGCTTC	-0.306
CTGTTCAA	0.0116
GTGCGCTA	0.0719
AAATAGCT	-0.00307
CCCATTTC	-0.137
CAAAGGCA	-0.0657
TCGTCCAA	0.0591
GCATGCCA	-0.126
ATGGGAAT	-0.0968
CAGCATCA	-0.0104
GCCATTTA	0.0915
TATTTTGA	0.126
CCAGGCCA	-0.256
AATGTTCG	0.0025
TAGACAAA	0.0484
CTGCATAC	0.125
ATCTCTAG	-0.12
ATACTTTA	0.224
CCGTCCCC	-0.338

Sequence	PBM E-score
CCGCATGC	-0.00346
AACTGGCA	0.0472
CCCAGCAG	-0.205
CGGTACCC	-0.229
AACAATGG	0.186
GCGAATAC	0.0476
AACTCAAT	0.101
AAACCCGG	-0.0294
GTGCCCCA	-0.252
AATTTCTA	0.0932
CAGATAAA	0.15
GGGCGATA	-0.261
TCAGACAA	0.0634
ACCTAGCT	-0.156
AATGGAGT	0.0202
AAAATCAT	0.099
ATGTCCTG	0.0306
GACCACCA	-0.126
ATTGGATG	0.0479
GATCTTTA	0.0282
AGGTCTTC	-0.194
CAGTTGGC	-0.151
ACGCGATA	0.134
GGCCATTA	0.0393
CGTGTACC	-0.0435

Sequence	PBM E-score
CACATACG	0.00477
AATCGCAG	0.0612
GTTGCCAA	-0.0155
AATATCGG	0.215
CGGTCTGA	-0.0519
AAGCAGCA	-0.17
ATTAGTCA	0.42
CGAGGAAC	0.0228
ATTCTGGA	0.132
AGAAATGC	0.16
ACTATTAA	0.123
CAAAACAA	0.075
CCGCCCAC	-0.0479
CACTCATG	0.0014
ACGCACAG	0.0281
CTTGCACC	0.0735
AGGCGCTA	0.0291
GACATTCC	-0.186
AAATATTG	0.269
GTCTATGA	0.181
CCGGCAAG	0.00534
GGCGACAC	-0.162
CGTCTCGA	0.0721
AAGGATCC	-0.16
AATGATTA	0.325

Sequence	PBM E-score
CACCGTTA	0.116
AGGCTAAA	-0.0161
AAGGATGT	-0.0734
GGCGGGTA	-0.221
AGTTCATC	-0.0605
GCGATGCA	-0.188
GAAGATCA	0.0115
AACGTTAC	0.128
AACTATAC	0.0711
TATCCGAA	0.0804
GAGAGCCA	-0.119
CCGGGTTC	-0.34
GCCAGGTA	-0.0301
CCAGGCTC	-0.213
AAGATCAC	0.108
CGAACAGA	0.0315
ACCAAACC	0.115
ACCGACAT	0.00535
GTCGCGAA	-0.0136
AAGGGCTA	-0.0582
CGAGGATC	0.00139
CCTGGGAG	-0.171
GGGTGACC	-0.247
GCTTTCCA	0.0839
GGTTTTCA	0.0332

Sequence	PBM E-score
GATACATC	0.224
ATGTCTAC	-0.185
AAAAAACT	0.0242
ATGTTGGA	0.247
CCTACTCG	-0.0477
CATAAACC	0.134
AGGTATGG	-0.0324
CTCCAAAG	-0.112
AAGATGCC	-0.0913
ACTTTAGC	-0.0127
AGGGGAAC	-0.188
CATAACGG	0.021
CGCGTTAC	0.212
GACCTAGA	-0.156
GTTAAAAC	0.0245
TTCTAAAA	0.0712
GCGTGCAC	-0.0932
CATTTCCC	0.293
ATAATGCC	0.0178
TACTCTGA	0.0683
CGTCCTAA	-0.0115
AATCACGT	0.242
